In article PMC3531308 one finds binding data, which are given here for 5 molecules.

For experiment [1], the target named is T1, FLAG-JunB (UniProt P17275).
T1 sequence: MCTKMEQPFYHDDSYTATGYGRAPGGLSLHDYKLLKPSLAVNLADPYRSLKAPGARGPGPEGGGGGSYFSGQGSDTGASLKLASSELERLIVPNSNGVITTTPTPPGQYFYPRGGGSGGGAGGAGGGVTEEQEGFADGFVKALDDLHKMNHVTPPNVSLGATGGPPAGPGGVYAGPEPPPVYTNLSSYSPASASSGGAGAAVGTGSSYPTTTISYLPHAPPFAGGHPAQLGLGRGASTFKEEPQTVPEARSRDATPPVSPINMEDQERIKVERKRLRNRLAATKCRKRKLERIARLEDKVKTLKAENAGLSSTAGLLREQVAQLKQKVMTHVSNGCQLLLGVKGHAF
Nature of the experiment: co-IP; competition-binding (Additional file 5): nuclear extracts of 293T cells overexpressing tagged APH-2, c-Jun or JunB and Tax2A; IP with FLAG antibodies; Western blot. (In general: A western blot detects proteins with antibodies after separation by electrophoresis.)

Experiment [2] deals with T1, FLAG-JunB. Briefly: co-IP; competition-binding: nuclear extracts of 293T cells expressing APH-2, c-Jun-HA or FLAG-JunB and increasing amounts of Tax2B-His; IP with FLAG antibodies; Western blot.
The target of experiment [3] is T1, FLAG-JunB. Nature of the experiment: co-IP; 293T cells transiently co-transfected with two tagged proteins; nuclear (in places called cellular) extracts 48 h after transfection, 400 ug; IP with 5 ug anti-FLAG, anti-Myc or anti-6xHis overnight at 4°C, Protein A/G beads; washes with 120 mM and 400 mM NaCl, 0.5% NP-40; Western blot.
Experiment [4] addresses T2, FLAG-JunD (UniProt P17535).
T2 sequence: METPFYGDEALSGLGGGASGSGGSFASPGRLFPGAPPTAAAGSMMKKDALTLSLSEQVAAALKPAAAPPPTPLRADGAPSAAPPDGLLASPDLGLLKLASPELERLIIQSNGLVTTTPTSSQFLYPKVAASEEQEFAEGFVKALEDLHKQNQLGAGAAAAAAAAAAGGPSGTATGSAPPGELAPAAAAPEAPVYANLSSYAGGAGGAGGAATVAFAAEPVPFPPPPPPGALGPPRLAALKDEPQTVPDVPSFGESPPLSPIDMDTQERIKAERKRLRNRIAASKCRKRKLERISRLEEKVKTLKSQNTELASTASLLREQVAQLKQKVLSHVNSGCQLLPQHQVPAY
The description is as above.

Experiment [5] deals with T3, endogenous JunB (human (endogenous in 293T)) (UniProt P17275).
T3 sequence: T1 sequence
Nature of the experiment: co-IP; endogenous c-Jun or JunB immunoprecipitated (anti-c-Jun, anti-JunB) from nuclear extracts of 293T cells transfected with FLAG-APH-2; Western blot with anti-FLAG.

Experiment [6] deals with APH-2-His (HTLV-2). Nature of the experiment: co-IP; 293T cells transiently co-transfected with two tagged proteins; nuclear (in places called cellular) extracts 48 h after transfection, 400 ug; IP with 5 ug anti-FLAG, anti-Myc or anti-6xHis overnight at 4°C, Protein A/G beads; washes with 120 mM and 400 mM NaCl, 0.5% NP-40; Western blot.

These are yes or no findings as the source states them, for the method shown. In cells and extracts the contact can be indirect. For some assays here: Binding can be weak; no strength is given. For some assays here: Where a sequence is shown, tags or fusion partners need not be part of it.

APH-2-His (HTLV-2): the binding entry in experiment [1] was “binds”; in experiment [2], “binds”; in experiment [3] it was “binds”; in experiment [4], “no binding”. In the case of “FLAG-APH-2 (antisense protein of HTLV-2, full-length)”, the binding result in experiment [5] is on record as “binds”. In the case of “Tax2B-His (expressed in 293T cells) (HTLV-2)”, the binding entry in experiment [2] is “binds”.

B1: FLAG-JunB (protein, UniProt P17275 1-347)
chain: T1 sequence
Regarding B1, the binding entry in experiment [6] is reported as “binds”.

B2: FLAG-JunD (protein, UniProt P17535 1-347)
chain: T2 sequence
In the case of B2, the binding result in experiment [6] was “no binding”.
